# The campaign covered roughly 300,000 compounds. About 3,700 (1.2%) were called active. The inconclusive results got no clear call from the source; some entries with a clear call stand among them for comparison. Calls follow the shape of the full dose curve; tested in HEK293 cells. Potencies beside an inconclusive call are fits to weak or partial responses and may not hold up.
# Test: qHTS for Inhibitors of binding or entry into cells for Lassa Virus; also: nearly all actives have a fitted effect of over 50% in size
# Settings: Lassa virus pseudotype entry inhibition, cell reporter; activity change, negative = inhibition: at 37.9 µM (top of the series) unless noted
# % is scaled to controls: 0 for no effect and ±100 for the full control effect; potency is read from the fitted curve at half-maximal effect.
Compound,"activity change, negative = inhibition",Potency
COc1cccc(C(=O)Nc2ccc(-n3nncc3-c3ccc(Br)cc3)cc2)c1OC,inactive: 2.31% [at 46.1 µM],–
CC(C)CC(NC(=O)C(CO)NC(=O)C1CCC(=O)N1)C(N)=O (stereo unspecified),inactive: -23.4%,–
CC(C)(C)c1ccc(/C=N/Nc2nncn2N)cc1,–,"inconclusive: 35.5 µM [inhibitor, single point]"
Cc1cc(C)c2[nH]c(O)c(N=NC(=S)NCC3CCCO3)c2c1 (stereo unspecified),inactive: 0.097%,–
CCN(C(=O)Cn1c(SCC(=O)Nc2ccc(OC)cc2)nc2ccccc21)c1cccc(C)c1,–,"inconclusive: 5.62 µM [inhibitor, single point]"
CC(C)(C)c1ccc(C(=O)NNc2ncnc3c2cnn3-c2ccccc2)cc1,–,"inconclusive: 7.94 µM [activator, partial curve, poor fit]"
Cc1ccc(S(=O)(=O)N2CCN(S(C)(=O)=O)C2)cc1,–,"inconclusive: 32.6 µM [activator, single point]"
COc1cc(/C=C2\COC/C(=C\c3ccc(O)c(OC)c3)C2=O)ccc1O,–,"inconclusive: 22.4 µM [inhibitor, single point]"
Cc1cccc(C(C)(C)C)c1OCCOCCN1CCCC1,–,"inconclusive: 29.1 µM [inhibitor, single point]"
CCOC(=O)CSc1nnc(NC(=O)c2cccc(S(=O)(=O)N3CCCCCC3)c2)s1,–,"inconclusive: 0.0058 µM [activator, full curve, poor fit]"
CC(OC(=O)c1ccc(-c2ccc(O)cc2)cc1)C(=O)NC1CCCCC1C (stereo unspecified),inactive: -15.3%,–
COCCCNC(=S)NC(=O)c1ccccc1,–,"inconclusive: 23.1 µM [activator, single point]"
Cc1csc(SC(C)C(=O)Nc2ccc(F)cc2Cl)n1 (stereo unspecified),–,"inconclusive: 2.82 µM [inhibitor, partial curve]"
Cc1ccc(NC(=O)C2c3ccccc3Oc3ccccc32)nc1,–,"inconclusive: 35.5 µM [inhibitor, single point]"
COc1cc(CN2CCC(n3nccc3NC(=O)C3CC3)CC2)cc(OC)c1,inactive: 8.52%,–
c1cc2c(cc1CN1CCOCC1)OCO2,inactive: 3.41%,–
COc1cccc(C(c2nnnn2Cc2ccco2)N2CCN(c3cccc(C)c3C)CC2)c1OC (stereo unspecified),–,"inconclusive: 12.6 µM [inhibitor, single point]"
CCS(=O)(=O)N1Cc2ccccc2CC1C(=O)Nc1ccc(F)c(F)c1 (stereo unspecified),inactive: -2.02% [at 46.1 µM],–
CCCOc1ccc2c3c(c(=O)oc2c1OCCC)CCCC3,–,"inconclusive: 35.5 µM [inhibitor, single point]"
Cc1ccc(NC(=O)CCN2C(=O)C3C4CCC(C4)C3C2=O)cc1Cl (stereo unspecified),inactive: 2.2%,–
CCCCOc1ccc(C(=O)NCC(=O)NC(C)CCc2ccccc2)cc1 (stereo unspecified),–,"inconclusive: 35.5 µM [inhibitor, single point]"
CCOc1ccccc1-n1c(SCC(=O)N2CCCc3ccccc32)nnc1-c1cccnc1,–,"inconclusive: 11.6 µM [inhibitor, partial curve, poor fit]"
CC(NC(=O)c1cccs1)C(=O)NC1=NCCS1 (stereo unspecified),–,"inconclusive: 0.82 µM [inhibitor, partial curve]"
O=C(COC(=O)C1CCN(c2ccc(C(F)(F)F)cn2)CC1)c1ccccc1Cl,inactive: 15.3%,–

# 3 of these compounds in another layout:
Compound | activity change, negative = inhibition | Potency
COc1cc(/C=C2\COC/C(=C\c3ccc(O)c(OC)c3)C2=O)ccc1O | – | inconclusive: 22.4 µM [inhibitor, single point]
Cc1cccc(C(C)(C)C)c1OCCOCCN1CCCC1 | – | inconclusive: 29.1 µM [inhibitor, single point]
CCOC(=O)CSc1nnc(NC(=O)c2cccc(S(=O)(=O)N3CCCCCC3)c2)s1 | – | inconclusive: 0.0058 µM [activator, full curve, poor fit]

# Remaining list, next part

Compound,"activity change, negative = inhibition",Potency
Cc1ccc(-c2[nH]nc(N)c2N=Nc2ccccc2C)cc1,–,"inconclusive: 18.3 µM [inhibitor, partial curve, poor fit]"
Cc1ccc2[nH]c(=O)cc(C(=O)OC(C)C)c2c1,–,"inconclusive: 0.316 µM [inhibitor, full curve, poor fit]"
C/C(=N\OCC(=O)OC(C)C(=O)Nc1ccc(C(N)=O)cc1)c1ccc2c(c1)OCO2 (stereo unspecified),inactive: 15%,–
COc1ccc(N2CCN(CCCNC(=O)c3ccc4nc(CCc5ccccc5)oc4c3)CC2)cc1,–,active: 10 µM
COc1ccc(NC(=O)CSc2c3c(nc4ccc(Cl)cc24)CCCC3)cc1Cl,inactive: 8.24% [at 46.1 µM],–
COc1cc(OC)cc(C(=O)NCCCNC(=O)c2cccnc2)c1,–,"inconclusive: 1.78 µM [inhibitor, partial curve, poor fit]"
COC(=O)N/N=C/c1cn(Cc2c(Cl)cccc2Cl)c2ccccc12,–,"inconclusive: 10 µM [inhibitor, partial curve]"
O=[N+]([O-])c1ccc(NCc2ccccc2)nc1,inactive: 9.16%,–
COc1ccc(-n2c(=O)[nH]cc(C(=O)Nc3ccc4c(c3)OCCO4)c2=O)cc1,–,"inconclusive: 9.2 µM [inhibitor, partial curve, poor fit]"
CC(C)OC(=O)N(C)c1ccc(C(O)(C(F)(F)F)C(F)(F)F)cc1,–,"inconclusive: 10.3 µM [inhibitor, partial curve]"
CCCCN1CNC(=S)N(c2cc(C)ccc2C)C1,inactive: 5.06%,–
CCOC(=O)C(NC(C)=O)(Nc1ccc(S(=O)(=O)Nc2onc(C)c2C)cc1)C(F)(F)F (stereo unspecified),–,"inconclusive: 0.461 µM [activator, full curve, poor fit]"
Cc1nnc(SCC(=O)c2ccc(Cl)cc2)n(N)c1=O,–,"inconclusive: 35.5 µM [inhibitor, single point]"
O=C(Nc1cc(Cl)ccc1O)C1CC(c2c(F)cccc2Cl)=NO1 (stereo unspecified),–,"inconclusive: 35.5 µM [inhibitor, single point]"
O=C(CSc1nc2ccc(NC(=O)c3ccccc3C(=O)O)cc2s1)Nc1ccc(F)c([N+](=O)[O-])c1,–,"inconclusive: 7.94 µM [inhibitor, partial curve, poor fit]"
CC(=O)N1CCc2cc(S(=O)(=O)N3CCOCC3)ccc21,inactive: -9.38%,–
CSc1nc(Sc2cccc(Cl)c2)c2ccccc2n1,inactive: 4.25%,–
COc1ccc(NC(=O)CN(C)C(=O)c2cn(-c3ccccc3)nc2-c2cccnc2)cc1,–,"inconclusive: 3.16 µM [activator, single point]"
CC(C)C(=O)O/N=C(\N)c1ccccn1,inactive: 8.88%,–
CSCCNCc1cn(-c2ccc(F)cc2F)nc1-c1ccccc1C,–,"inconclusive: 15.8 µM [inhibitor, single point]"
COc1ccc(C(=O)NC(Oc2ccccc2)C(Cl)(Cl)Cl)cc1 (stereo unspecified),inactive: -12.7%,–
C/C(=N\NC(=O)c1cc(-c2ccc(C)s2)[nH]n1)c1ccco1,inactive: -0.687%,–
Cc1ccc(CNC(=O)CSc2c3c(nc4ccc(Cl)cc24)CCCC3)cc1,inactive: 20.3% [at 46.1 µM],–
Cc1ccc(S(=O)(=O)Nc2nc3ccccc3s2)cc1,–,"inconclusive: 7.3 µM [inhibitor, single point]"

Compound,"activity change, negative = inhibition",Potency
Cc1cccc(Nc2nc(C)nc(N)c2S(=O)(=O)c2ccccc2)c1,–,"inconclusive: 6.31 µM [inhibitor, partial curve, poor fit]"
CC(C)(C)c1ccc(C(=O)N2CCN(C(=O)c3ccco3)CC2)cc1,–,"inconclusive: 35.5 µM [inhibitor, partial curve, poor fit]"
c1ccc(-n2cnnc2SCc2nc3ccccc3s2)cc1,–,"inconclusive: 32.6 µM [inhibitor, single point]"
CCOC(=O)C1CCN(Cc2c(O)ccc3ccccc23)CC1,inactive: -7%,–
Cc1ccc(CNC(=O)c2sc3nc4n(c(=O)c3c2C)CCCC4)cc1,–,"inconclusive: 0.562 µM [inhibitor, full curve, poor fit]"
C/C(CCN1CCc2nc(-c3ccccc3)c(-c3ccccc3)cc2C1)=N\O[C@@H](C)c1cn([C@H](CO)Cc2ccccc2)nn1,–,"inconclusive: 32.6 µM [inhibitor, partial curve, poor fit]"
C=CCN1C(=O)c2ccc(C(=O)N(C)CC(=O)Nc3ccccc3Br)cc2C1=O,–,"inconclusive: 1.26 µM [inhibitor, single point]"
COC(=O)Nc1nc(-c2ccccc2)c(C(=O)c2ccc(Cl)cc2)s1,–,"inconclusive: 0.398 µM [inhibitor, full curve, poor fit]"
CC(NC(=O)c1cccs1)C1CCCO1 (stereo unspecified),inactive: -1.31%,–
Fc1ccccc1C(c1nnnn1Cc1ccc2c(c1)OCO2)N1CCN(Cc2ccccc2)CC1 (stereo unspecified),–,"inconclusive: 7.94 µM [inhibitor, partial curve, poor fit]"
COCCCNC(=O)CSc1nc2ccccc2c(=O)n1CCCC(=O)NCC1CCCO1 (stereo unspecified),inactive: 4.04%,–
CN1CCN(S(=O)(=O)c2ccc3c(c2)oc(=O)n3C)CC1,–,"inconclusive: 20 µM [activator, single point]"
O=C(c1ccc2c(c1)N(Cc1ccc(F)cc1)CCS2)N1CCN(c2ccccc2)CC1,–,"inconclusive: 35.5 µM [inhibitor, single point]"
COc1ccc2oc(=O)c(-c3csc(Nc4cccc(O)c4)n3)cc2c1,–,"inconclusive: 5.8 µM [inhibitor, full curve]"
COc1cc(C2C(C#N)=C(N)N(Nc3ccccc3)C3=C2C(=O)CC(C)(C)C3)ccc1OCc1cccc(F)c1 (stereo unspecified),–,"inconclusive: 25.1 µM [inhibitor, single point]"
COc1ccc(-c2csc(NC(=O)c3ccc(N4C(=O)CCC4=O)cc3)n2)cc1OC,inactive: 0.29%,–
COc1ccc(C(=O)Nc2ccc(C(=O)OCC(=O)c3cccc4ccccc34)cc2)cc1,inactive: 3.44%,–
CCc1ccc(OCC(O)CN2CCN(c3ccccc3)CC2)cc1 (stereo unspecified),–,inactive
CCCCCn1c(CN2CCN(Cc3ccccc3)CC2)nc2c1c(=O)n(C)c(=O)n2C,inactive: -6.63%,–
CC(=O)OCc1c(-c2ccccc2)c2cc([N+](=O)[O-])ccc2n1C,inactive: 19% [at 46.1 µM],–
CCCCOc1ccc(-c2nc(SCC(N)=O)n[nH]2)cc1,–,"inconclusive: 10.3 µM [inhibitor, partial curve, poor fit]"
COc1ccc(C(=O)Nc2cccc3ccccc23)cc1,–,"inconclusive: 6.31 µM [activator, single point]"
O=C(OCc1nc2ccccc2[n+]([O-])c1C(=O)c1ccccc1)c1cccnc1,–,"inconclusive: 0.794 µM [inhibitor, single point]"
